Assay results taken from US12473328 (dated 2025).
Marks after values point to notes of the source that are not given here. The star is where a group is joined. Palmitoyl = CCCCCCCCCCCCCCCC(=O)*; Myristoyl = CCCCCCCCCCCCCC(=O)*

Test: peptide synthesis
Details: for step yield / oxidative folding yield / cyclisation yield: yield of modification; for crude HPLC purity / difficulty met: whole synthesis
[1] = oxidative folding step, one disulfide bridge, sequence written open
[2] = oxidative folding step, several disulfide bridges, sequence written open
[3] = cyclisation step, thioether ring, sequence written open
[4] = cyclisation step, bicyclic, sequence written open

Substance	purity (crude or final not stated) (lipidation step)	step yield (lipidation step)	crude HPLC purity (UV210)	further results
H-HAEGTFTSDVSSYLEGQAAK(Palm-γE-OH)EFIAWLVRGRG-NH2	54%	88%	30%	
H-CYFQNCPRG-NH2				final purity (method not given) [1]: 85%; purity (crude or final not stated) [1]: 85%; oxidative folding yield [1]: >95%; crude HPLC purity (UV210, one disulfide bridge, sequence written open): 60%*
Palmitoyl-GGKWSK(Palmitoyl)SSVIGWPAVRER-NH2	6%	>99%		difficulty met: traces*
H-KCNTATCATQRLANFLVHSSNFGPILPPTNVGSNTY-NH2				final purity (method not given) [1]: 10%; oxidative folding yield [1]: >99%; difficulty met (one disulfide bridge, sequence written open): traces*
Palmitoyl-SGGK(Palmitoyl)WSK(Palmitoyl)SSVIGWPAVRER-NH2	53%	>99%		difficulty met: traces*
H-AK(Palm-Glu-OH)EFIAWLVRGRG-NH2	83%	95%	62%	
H-KKKKSC(C2H4O-Palm)-NH2		39%	67%*	
H-CCEYCCNPACTGCY-NH2				final purity (method not given) [2]: 10%; oxidative folding yield [2]: >75%
H-VRVPGCAHCADSLY-NH2				purity (crude or final not stated) [3]: 74%; cyclisation yield [3]: >99%; crude HPLC purity (UV210, thioether ring, sequence written open): 56%
H-KEKFSINSEDNNGC(C3H5O2-diPalm)-NH2			67%*	
H-ACREGFLRCLHRPTVCNG-H2				purity (crude or final not stated) [4]: 67%; cyclisation yield [4]: >99%; crude HPLC purity (UV210, bicyclic, sequence written open): 60%
H-HAEGTFTSDVSSYLEGQAAK(Palm-Glu-OH)EFIAWLVRGRG-OH	72%	>99%	7%	
H-KEKFSINSEDNNGC(C2H40-Palm)-NH2		>98%	55%*	
H-KEKFSINSEDNNGC(C2H4O-Palm)-NH2		46%	55%*	
H-HAibFGTFTSDVSSYLEGQAAK(CO2H-Ste-Glu(aeea-aeea-OH)-OH)EFIAWLVRGRG-OH	67%	>99%	6%	
Myristoyl-GGKWSK(Myristoyl)SSVIGWPAVRER-NH2	3%	>99%		difficulty met: traces*
